Measured data: PubChem BioAssay AID743454 (Peter MacCallum Cancer Centre, 2014)
The deposit covers about 18,000 reagents; this is a random part of them. Of all reagents, 450 (2.5%) were called active. 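Single biological run; no consistent viability z cut-off exists, so the class columns, not z-scores, define the calls.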 Entries without a mark were called inactive. Reagent sequences are not shown.

Purpose: 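Genes whose loss kills vorinostat-resistant colon cancer cells under vorinostat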 (primary screen)
Cell system: human HCT116-VR colon cancer cells, selected for vorinostat resistance
Reagent: siRNA pool against human genes, 40 nM siRNA pool
Duration: vorinostat for 24 h, read-out about 72 h after transfection
Conditions: vorinostat at 2.5 µM final
Measured: 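Two measures, CellTiter-Fluor viability and luminescent caspase 3/7 activity, each as fold change against same-plate mock wells, mean of duplicates, then screen-wide robust z-score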
Scale: viability robust z-score: higher = more viable cells than screen typical; caspase robust z-score: higher = more caspase 3/7 activity than screen typical
Active means: 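a knock-down is a hit when classed RV1 or RV2 for lowered viability, or CA1 or CA2 for caspase activation; those lethal without drug were dropped; hits were retested singly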

Target gene | viability hit class | caspase hit class | viability robust z-score | caspase robust z-score
TRIR (telomerase RNA component interacting RNase) | no change | no change | -2.27 | 1.74
PRRT1 (proline rich transmembrane protein 1) | no change | no change | -0.36 | 3.35
MYBBP1A (MYB binding protein 1a) | no change | no change | -1.12 | -0.69
POLR2B (RNA polymerase II subunit B) | no change | no change | -3.01 | 3.17
PNMT (phenylethanolamine N-methyltransferase) | no change | no change | -1.21 | 3.18
OR2C3 (olfactory receptor family 2 subfamily C member 3) | no change | no change | 0.53 | -0.42
MAP1A (microtubule associated protein 1A) | no change | no change | -2.04 | -1.19
LYSMD2 (LysM domain containing 2) | no change | no change | 1.76 | 0.15
MED25 (mediator complex subunit 25) | no change | no change | 1.02 | 3.64
FAM90A1 (family with sequence similarity 90 member A1) | no change | no change | 0.27 | 3.28
DCAF11 (DDB1 and CUL4 associated factor 11) | no change | no change | 0.76 | -0.48
C16orf54 (chromosome 16 open reading frame 54) | RV2 (reduced viability) (active) | no change | -3.13 | 3.58
PLA2G4C (phospholipase A2 group IVC) | no change | no change | 0.36 | -0.3
NPHS2 (NPHS2 stomatin family member, podocin) | no change | no change | -0.04 | 0.94
RARRES1 (retinoic acid receptor responder 1) | no change | no change | 1.01 | -0.36
CNGB3 (cyclic nucleotide gated channel subunit beta 3) | no change | no change | 0.36 | -0.42
H3C8 (H3 clustered histone 8) | no change | no change | -0.34 | 2.17
DHFR2 (dihydrofolate reductase 2) | no change | no change | 1.21 | -0.7
HMG20A (high mobility group 20A) | no change | no change | -0.06 | -0.99
MRAP2 (melanocortin 2 receptor accessory protein 2) | no change | no change | -0.24 | -0.43
SCGB2B2 (secretoglobin family 2B member 2) | no change | no change | 0.55 | -0.17
TANC1 | no change | no change | 0.12 | 1.62
ARL11 (ARF like GTPase 11) | no change | no change | -0.89 | 0.72
STUB1 (STIP1 homology and U-box containing protein 1) | no change | no change | -0.04 | 0.6
YDJC (YdjC chitooligosaccharide deacetylase homolog) | no change | no change | 0.56 | 0.29
ACKR2 (atypical chemokine receptor 2) | no change | no change | 1.57 | 0.84
MYNN (myoneurin) | no change | no change | 0.83 | 0.04
TMTC1 (transmembrane O-mannosyltransferase targeting cadherins 1) | no change | no change | -0.36 | 0.97
FGFRL1 (fibroblast growth factor receptor like 1) | RV2 (reduced viability) (active) | no change | -3.13 | 3.44
GIMAP6 (GTPase, IMAP family member 6) | no change | no change | 0.8 | 0.21
LINC02870 (long independently transcribed non-coding RNA 2870) | no change | no change | 1.87 | -0.84
CYBB (cytochrome b-245 beta chain) | no change | no change | -1.73 | 0.39
AP3D1 (adaptor related protein complex 3 subunit delta 1) | no change | no change | -0.17 | 0.71
LSG1 (large 60S subunit nuclear export GTPase 1) | no change | no change | 0.74 | -0.55
TYW5 (tRNA-yW synthesizing protein 5) | no change | no change | 0.34 | -0.05
GLB1 (galactosidase beta 1) | no change | no change | 0.03 | 0.26
MRPS23 (mitochondrial ribosomal protein S23) | no change | no change | -0.55 | -0.24
OTUD7B (OTU deubiquitinase 7B) | no change | no change | -1.12 | 3.46
GMIP (GEM interacting protein) | no change | no change | -0.86 | 3
SPSB4 (splA/ryanodine receptor domain and SOCS box containing 4) | no change | no change | -0.74 | 0.8
TULP3 (TUB like protein 3) | no change | no change | 0.36 | -0.4
BORCS5 (BLOC-1 related complex subunit 5) | no change | no change | -0.58 | -0.26
POP7 (POP7 ribonuclease P/MRP subunit) | no change | no change | -0.06 | -0.4
ITFG2 (integrin alpha FG-GAP repeat containing 2) | no change | no change | -0.84 | -0.61
TFR2 (transferrin receptor 2) | no change | no change | -1.07 | 0.92
EHMT1 (euchromatic histone lysine methyltransferase 1) | no change | no change | -0.52 | 0.26
BNIP1 (BCL2 interacting protein 1) | no change | no change | -0.9 | 1.9
HIBCH (3-hydroxyisobutyryl-CoA hydrolase) | no change | no change | 0.42 | -0.56
SLC25A25 | no change | no change | 1.68 | -0.55
ATG101 (autophagy related 101) | no change | no change | 0.75 | -0.04
SMAP1 (small ArfGAP 1) | no change | no change | 0.24 | -0.28
SLC27A3 | no change | no change | -0.56 | 0.3
TMEM39A (transmembrane protein 39A) | no change | no change | -0.36 | -0.45
SPATA6 (spermatogenesis associated 6) | no change | no change | 0.72 | -0.89
INAVA (innate immunity activator) | no change | no change | -1.14 | -0.8
ERN2 (endoplasmic reticulum to nucleus signaling 2) | no change | no change | 0.38 | -1
RPL8 (ribosomal protein L8) | no change | no change | -4.57 | -0.6

Reformatted: results already given
{"Target gene":"HIBCH (3-hydroxyisobutyryl-CoA hydrolase)","viability hit class":"no change","caspase hit class":"no change","viability robust z-score":0.42,"caspase robust z-score":-0.56}
{"Target gene":"SLC25A25","viability hit class":"no change","caspase hit class":"no change","viability robust z-score":1.68,"caspase robust z-score":-0.55}
{"Target gene":"ATG101 (autophagy related 101)","viability hit class":"no change","caspase hit class":"no change","viability robust z-score":0.75,"caspase robust z-score":-0.04}
{"Target gene":"SMAP1 (small ArfGAP 1)","viability hit class":"no change","caspase hit class":"no change","viability robust z-score":0.24,"caspase robust z-score":-0.28}
{"Target gene":"SLC27A3","viability hit class":"no change","caspase hit class":"no change","viability robust z-score":-0.56,"caspase robust z-score":0.3}
{"Target gene":"TMEM39A (transmembrane protein 39A)","viability hit class":"no change","caspase hit class":"no change","viability robust z-score":-0.36,"caspase robust z-score":-0.45}
{"Target gene":"SPATA6 (spermatogenesis associated 6)","viability hit class":"no change","caspase hit class":"no change","viability robust z-score":0.72,"caspase robust z-score":-0.89}
